Reference: paper PMC7988493
No constants are given. Whether binding was seen depends on the method and setting. In cells and extracts the contact can be indirect. Some results given as binding are weak or reduced against the parent protein; the word gives no strength.

Sequences of proteins named here, by UniProt entry; tags and fusion partners are left off. A change or cut given only in a name is not applied to a line headed by its entry. A line that says so, or that is headed by a name, gives the form on record, which may keep a tag or linker.
GFP-SERCA2a (EGFP fused to the N terminus of human SERCA2a) (P16615, form named): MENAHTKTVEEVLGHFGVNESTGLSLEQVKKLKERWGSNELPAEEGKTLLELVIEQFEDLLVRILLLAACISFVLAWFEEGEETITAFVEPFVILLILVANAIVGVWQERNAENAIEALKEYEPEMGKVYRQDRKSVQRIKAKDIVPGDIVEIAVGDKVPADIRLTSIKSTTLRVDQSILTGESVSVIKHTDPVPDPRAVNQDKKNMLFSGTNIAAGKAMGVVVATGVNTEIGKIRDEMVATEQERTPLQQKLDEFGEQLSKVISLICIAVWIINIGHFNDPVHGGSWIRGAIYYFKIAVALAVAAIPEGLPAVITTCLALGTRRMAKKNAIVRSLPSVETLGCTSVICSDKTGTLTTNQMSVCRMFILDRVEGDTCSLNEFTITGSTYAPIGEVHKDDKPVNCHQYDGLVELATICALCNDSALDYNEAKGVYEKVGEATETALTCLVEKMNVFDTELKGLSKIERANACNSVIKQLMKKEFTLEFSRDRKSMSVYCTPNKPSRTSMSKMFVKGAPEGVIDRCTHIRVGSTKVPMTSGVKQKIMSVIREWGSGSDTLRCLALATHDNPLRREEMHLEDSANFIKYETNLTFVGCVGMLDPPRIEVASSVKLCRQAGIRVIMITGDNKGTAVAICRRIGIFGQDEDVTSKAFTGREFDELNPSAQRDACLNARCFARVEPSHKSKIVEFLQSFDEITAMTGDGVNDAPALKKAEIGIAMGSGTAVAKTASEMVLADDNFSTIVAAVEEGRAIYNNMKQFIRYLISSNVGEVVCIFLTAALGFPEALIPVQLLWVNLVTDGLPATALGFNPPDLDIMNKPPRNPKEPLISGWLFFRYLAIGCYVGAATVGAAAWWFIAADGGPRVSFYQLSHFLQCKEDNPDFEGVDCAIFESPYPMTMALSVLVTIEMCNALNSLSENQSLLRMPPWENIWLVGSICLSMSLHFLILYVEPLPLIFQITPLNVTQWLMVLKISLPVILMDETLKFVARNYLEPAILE
UniProt P26678: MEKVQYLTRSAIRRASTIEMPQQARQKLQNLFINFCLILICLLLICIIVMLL

Molecular target: GFP-SERCA2a (EGFP fused to the N terminus of human SERCA2a) (human) (UniProt P16615)
Experiment: FRET or BRET; competition: fluorescence lifetime FRET in live HEK293 cells stably coexpressing GFP-SERCA2a (donor) and RFP-PLB (acceptor), increasing amounts of unlabeled DWORF construct DNA transiently transfected (6-well plates); E and XDA

- binding: binds
Substance: RFP-PLB (tagRFP fused to the N terminus of human phospholamban) (from UniProt P26678 1-52)
